Results from publication PMC4571087.
No constants are given. Whether binding was seen depends on the method and setting. In cells and extracts the contact can be indirect. Here binding means that the protein was enriched with, or labelled near, the bait; the list need not be complete.

Sequences of proteins named here, by UniProt entry; tags and fusion partners are left off.
UniProt P38682: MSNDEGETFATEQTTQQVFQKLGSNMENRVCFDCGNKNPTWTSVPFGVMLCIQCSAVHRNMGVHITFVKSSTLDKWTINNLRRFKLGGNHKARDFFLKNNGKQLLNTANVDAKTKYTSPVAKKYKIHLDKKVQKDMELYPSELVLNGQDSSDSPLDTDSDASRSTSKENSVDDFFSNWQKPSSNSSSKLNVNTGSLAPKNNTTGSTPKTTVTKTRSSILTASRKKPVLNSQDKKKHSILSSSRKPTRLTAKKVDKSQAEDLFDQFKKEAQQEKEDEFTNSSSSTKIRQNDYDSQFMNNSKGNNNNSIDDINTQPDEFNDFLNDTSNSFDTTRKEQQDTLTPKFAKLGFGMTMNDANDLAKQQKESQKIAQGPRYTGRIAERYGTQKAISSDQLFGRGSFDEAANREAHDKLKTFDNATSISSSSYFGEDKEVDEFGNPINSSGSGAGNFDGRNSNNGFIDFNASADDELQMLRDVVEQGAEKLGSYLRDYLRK

Target: Glo3-HBH (S. cerevisiae) (UniProt P38682)
Assay: affinity purification with mass spectrometry; cells expressing Glo3-HBH fixed with 1% formaldehyde for 2 min at RT, quenched with glycine; tandem affinity purification by the HBH tag; eluted proteins digested (LysC, trypsin) and analysed by LC-MS/MS

B1: C-5 sterol desaturase Erg3 (protein, UniProt P32353 1-365)
chain: MDLVLEVADHYVLDDLYAKVLPASLAANIPVKWQKLLGLNSGFSNSTILQETLNSKNAVKECRRFYGQVPFLFDMSTTSFASLLPRSSILREFLSLWVIVTIFGLLLYLFTASLSYVFVFDKSIFNHPRYLKNQMAMEIKLAVSAIPWMSMLTVPWFVMELNGHSKLYMKIDYENHGVRKLIIEYFTFIFFTDCGVYLAHRWLHWPRVYRALHKPHHKWLVCTPFASHSFHPVDGFLQSISYHIYPLILPLHKVSYLILFTFVNFWTVMIHDGQYLSNNPAVNGTACHTVHHLYFNYNYGQFTTLWDRLGGSYRRPDDSLFDPKLRDAKETWDAQVKEVEHFIKEVEGDDNDRIYENDPNTKKNN
B1 was tested, and the binding was “binds”.
